This assay has as its target HA-epitope tagged JMJD3 (UniProt O15054). The assay is described as follows: co-IP; anti-HA immunoprecipitation (isotype IgG control) from whole extracts of HEK 293T cells transfected with HA-JMJD3; TNGT buffer, magnetic beads, overnight at 4°C; extracts treated or not with 40 U/ml RNaseH and 25 U/ml DNaseI for 1 h at 37°C; western blot. On the technique in general: In western blotting, separated proteins are transferred to a membrane and probed.

By UniProt entry, the sequences of proteins in these tests, tags left out.
UniProt O15054: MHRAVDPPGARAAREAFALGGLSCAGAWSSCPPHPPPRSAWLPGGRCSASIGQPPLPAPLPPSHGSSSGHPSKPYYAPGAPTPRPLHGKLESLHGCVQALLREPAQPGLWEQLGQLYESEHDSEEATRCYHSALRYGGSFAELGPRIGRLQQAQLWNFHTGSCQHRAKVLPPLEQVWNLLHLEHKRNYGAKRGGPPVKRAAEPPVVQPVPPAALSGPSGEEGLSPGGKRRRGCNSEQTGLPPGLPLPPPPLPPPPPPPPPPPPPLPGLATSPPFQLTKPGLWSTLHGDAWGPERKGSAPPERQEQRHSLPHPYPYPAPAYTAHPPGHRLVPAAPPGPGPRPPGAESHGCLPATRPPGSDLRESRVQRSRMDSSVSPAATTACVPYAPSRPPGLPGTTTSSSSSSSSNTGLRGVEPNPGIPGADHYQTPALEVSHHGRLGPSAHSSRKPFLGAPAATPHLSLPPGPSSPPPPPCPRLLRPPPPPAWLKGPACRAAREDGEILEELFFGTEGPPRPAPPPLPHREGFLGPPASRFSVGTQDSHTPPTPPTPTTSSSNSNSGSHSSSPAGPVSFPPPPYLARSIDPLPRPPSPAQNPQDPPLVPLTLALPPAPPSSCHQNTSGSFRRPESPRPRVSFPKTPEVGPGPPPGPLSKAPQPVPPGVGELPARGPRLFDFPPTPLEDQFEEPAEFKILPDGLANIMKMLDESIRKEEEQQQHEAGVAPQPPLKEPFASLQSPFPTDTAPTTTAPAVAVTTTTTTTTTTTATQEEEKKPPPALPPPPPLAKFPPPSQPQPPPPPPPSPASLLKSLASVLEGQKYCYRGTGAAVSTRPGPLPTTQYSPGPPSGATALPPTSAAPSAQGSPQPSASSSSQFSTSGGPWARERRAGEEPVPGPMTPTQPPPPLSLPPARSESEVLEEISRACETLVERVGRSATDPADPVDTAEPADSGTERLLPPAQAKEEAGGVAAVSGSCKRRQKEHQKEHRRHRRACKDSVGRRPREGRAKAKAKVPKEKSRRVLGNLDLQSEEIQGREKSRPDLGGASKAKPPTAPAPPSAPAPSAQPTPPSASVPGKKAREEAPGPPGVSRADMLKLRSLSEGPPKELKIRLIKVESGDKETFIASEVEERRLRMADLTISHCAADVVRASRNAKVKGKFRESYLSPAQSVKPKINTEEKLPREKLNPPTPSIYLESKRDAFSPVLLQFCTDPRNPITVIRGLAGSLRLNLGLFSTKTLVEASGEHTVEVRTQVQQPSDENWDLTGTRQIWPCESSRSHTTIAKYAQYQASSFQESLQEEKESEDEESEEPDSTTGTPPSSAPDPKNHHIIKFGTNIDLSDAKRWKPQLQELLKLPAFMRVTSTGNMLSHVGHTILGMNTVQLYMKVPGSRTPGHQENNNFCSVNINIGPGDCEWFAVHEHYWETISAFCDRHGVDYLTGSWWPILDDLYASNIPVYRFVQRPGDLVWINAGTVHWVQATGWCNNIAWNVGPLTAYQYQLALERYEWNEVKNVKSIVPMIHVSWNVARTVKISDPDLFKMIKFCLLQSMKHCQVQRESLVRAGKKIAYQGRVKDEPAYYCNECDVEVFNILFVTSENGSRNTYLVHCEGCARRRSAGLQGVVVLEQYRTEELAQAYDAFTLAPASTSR

No constants are given. Whether binding was seen depends on the method and setting. Binding seen in cells or lysates may run through a third protein. Some binding calls cover weakened binding; strength is not graded here.

B1: DDX21 (enzyme, UniProt Q9NR30 1-783)
chain: MPGKLRSDAGLESDTAMKKGETLRKQTEEKEKKEKPKSDKTEEIAEEEETVFPKAKQVKKKAEPSEVDMNSPKSKKAKKKEEPSQNDISPKTKSLRKKKEPIEKKVVSSKTKKVTKNEEPSEEEIDAPKPKKMKKEKEMNGETREKSPKLKNGFPHPEPDCNPSEAASEESNSEIEQEIPVEQKEGAFSNFPISEETIKLLKGRGVTFLFPIQAKTFHHVYSGKDLIAQARTGTGKTFSFAIPLIEKLHGELQDRKRGRAPQVLVLAPTRELANQVSKDFSDITKKLSVACFYGGTPYGGQFERMRNGIDILVGTPGRIKDHIQNGKLDLTKLKHVVLDEVDQMLDMGFADQVEEILSVAYKKDSEDNPQTLLFSATCPHWVFNVAKKYMKSTYEQVDLIGKKTQKTAITVEHLAIKCHWTQRAAVIGDVIRVYSGHQGRTIIFCETKKEAQELSQNSAIKQDAQSLHGDIPQKQREITLKGFRNGSFGVLVATNVAARGLDIPEVDLVIQSSPPKDVESYIHRSGRTGRAGRTGVCICFYQHKEEYQLVQVEQKAGIKFKRIGVPSATEIIKASSKDAIRLLDSVPPTAISHFKQSAEKLIEEKGAVEALAAALAHISGATSVDQRSLINSNVGFVTMILQCSIEMPNISYAWKELKEQLGEEIDSKVKGMVFLKGKLGVCFDVPTASVTEIQEKWHDSRRWQLSVATEQPELEGPREGYGGFRGQREGSRGFRGQRDGNRRFRGQREGSRGPRGQRSGGGNKSNRSQNKGQKRSFSKAFGQ
Consider B1, for which the binding entry is recorded as “binds”.

These data come from paper PMC6895255.
